The experiment addresses T1, recombinant Sirt4 (residues 29-314) (human) (UniProt Q9Y6E7).
T1 sequence: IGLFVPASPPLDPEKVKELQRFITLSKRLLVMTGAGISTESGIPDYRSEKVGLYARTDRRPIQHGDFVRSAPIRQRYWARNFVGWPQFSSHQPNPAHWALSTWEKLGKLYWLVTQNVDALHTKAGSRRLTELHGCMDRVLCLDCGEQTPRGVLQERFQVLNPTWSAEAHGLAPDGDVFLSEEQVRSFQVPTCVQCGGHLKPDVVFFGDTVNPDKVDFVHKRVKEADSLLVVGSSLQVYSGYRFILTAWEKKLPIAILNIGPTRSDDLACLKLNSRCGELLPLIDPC
Put plainly: co-purification; GST-Sirt4 co-expressed with GroEL/GroES/Tig in E. coli; Glutathione Sepharose 4B, PreScission cleavage, anion exchange column; GroEL stayed with Sirt4.

Amino acid sequences for entries named in this document (tags omitted).
UniProt P0A6F5: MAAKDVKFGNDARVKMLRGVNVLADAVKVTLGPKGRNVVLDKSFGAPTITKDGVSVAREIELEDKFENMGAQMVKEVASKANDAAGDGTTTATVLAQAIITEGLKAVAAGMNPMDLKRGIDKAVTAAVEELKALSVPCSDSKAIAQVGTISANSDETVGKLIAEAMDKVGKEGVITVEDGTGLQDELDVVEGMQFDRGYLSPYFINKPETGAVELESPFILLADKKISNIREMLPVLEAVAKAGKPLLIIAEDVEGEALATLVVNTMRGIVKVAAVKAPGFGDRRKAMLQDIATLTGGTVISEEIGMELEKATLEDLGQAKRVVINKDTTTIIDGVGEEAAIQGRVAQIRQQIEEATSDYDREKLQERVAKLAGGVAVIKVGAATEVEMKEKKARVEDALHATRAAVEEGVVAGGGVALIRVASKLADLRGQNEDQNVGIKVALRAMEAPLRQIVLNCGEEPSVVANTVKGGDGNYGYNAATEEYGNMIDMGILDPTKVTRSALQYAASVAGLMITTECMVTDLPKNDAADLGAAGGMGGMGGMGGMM

Results are given in words; binding and its absence hold for the method and conditions named. Some binding calls cover weakened binding; strength is not graded here.

Take GroEL (from UniProt P0A6F5 1-548): the binding result is “binds”.

The values above are taken from PMC5805777.
